Reference: patent US11236341

Target: Transferrin receptor (TfR, TFRC) extracellular domain (UniProt P02786)
Assay: SELEX
Settings: 2'-F pyrimidines (2'F-U, 2'F-C); isolated after 12 rounds against His-TfR; Cy3-TR18 tested for internalization in HepG2; 30 mM Tris-HCl, 150 mM NaCl, 1.5 mM MgCl2, 2 mM DTT, 1% BSA, room temperature; purified recombinant protein; protein details: His-tag, Sino Biological 11020-HO7H; label: Cy3 for cell imaging; variant of TR14

GGGAGACAAGAAUAAACGCUCAAUGCGUUUACGUUUAUUCACAUUUUUGAAUUGAGCAUGAGCUUCGACAGGAGGCUCACAACAGGC [TR18]
selection result: selected

The exact form of at least one protein or probe is not confirmed.
